# Reference: PubChem BioAssay AID1259415 (National Center for Advancing Translational Sciences (NCATS), 2018)
# Screen size: about 410,000 compounds; about 18,000 (4.4%) were called active. Inconclusive results, whose numbers are uncertain, are shown with a selection of clear calls. No stated cut-off is given here; in the data, active means activity change below about -60%; inconclusive means no clear call, values can overlap the other calls; inactive means above about -39%.
# Assay: qHTS Assay for inhibitors of the human cytomegalovirus (HCMV)
# Details: HFF cells, HCMV-luciferase reporter, 72 h; at 57.5 µM; active compounds read low
# Outline: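 Inhibition of viral replication was scored as loss of reporter luminescence in HFFs infected with HCMV-luciferase (MOI 1 PFU/cell) for 72 h; compounds tested at 2 doses, normalized to buffer and Salinomycin controls.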
# On the % scale 0 is the no-effect control and ±100 the full control effect.
row,Structure (SMILES),"activity change, negative = inhibition"
1,CN(C)S(=O)(=O)c1ccc(Cl)c(NC(=O)CSc2nc3c(cc2C#N)C(=O)CC(C)(C)C3)c1,inconclusive: -40.2%
2,CN(C(=O)c1ccc(Cl)cc1)c1ccc(OCC(=O)Nc2cc(C(=O)O)ccc2Cl)cc1,inconclusive: -45.9%
3,Cc1ccccc1NC(=O)CSc1nnc(Cc2cccn2C)n1-c1ccc(F)cc1,inconclusive: -43.2%
4,COCC(C)n1c(=O)sc2ccccc2c1=O (stereo not drawn),inconclusive: -42.6%
5,O=C(CSc1ccc(Br)cc1)N1CCOCC1,inconclusive: -50%
6,COc1ccc(-c2nnc(SCC(=O)NNC(=O)Cc3ccccc3)n2C)cc1OC,inconclusive: -43.1%
7,CCCC(c1nnnn1CCOC)N1CCN(c2nc3ccccc3s2)CC1 (stereo not drawn),inconclusive: -47.7%
8,Cc1cc(C)cc(NC(=O)CCn2c(=S)[nH]c3ccccc3c2=O)c1,inconclusive: -59.1%
9,Cc1cc(C)n(CC(=O)Nc2ccc(N3CCOCC3)c(Cl)c2)c(=O)c1C#N,inconclusive: -42%
10,O=C(NCc1cc(Cl)cc(Cl)c1)c1ccc2sc([C@@H]3O[C@H](CO)[C@H](O)[C@H](O)[C@H]3O)nc2c1,inactive: -9%
11,Cc1nc(N(C)C)c2sc(=S)n(Cc3ccccc3)c2n1,inactive: -9.68%
12,CCCN(C(=O)Cn1nc(Cc2cccnc2)c2ccccc2c1=O)c1ccc(C(C)C)cc1,active: -63.2%
13,Cc1oc2ccccc2c1CC(=O)NCCCN(C)C,active: -64.3%
14,CN(C(=O)C=Cc1ccccc1)c1ccccc1,active: -101%
15,N#Cc1cc(-c2ccccc2)cnc1Sc1ccccc1,inactive: 33.2%
16,COc1ccccc1N=Nc1c(O)[nH]c(=S)[nH]c1=O,inconclusive: -57.6%
17,COc1ccc(S(=O)(=O)n2ccc(C(C)Oc3ccc(-c4ccccc4)c(F)c3)n2)cc1 (stereo not drawn),inconclusive: -40.3%
18,Cc1ccc(NC(=O)/C=C/c2cccc(C(F)(F)F)c2)cc1,inconclusive: -58.2%
19,O=C1CSC(=S)N1Cc1ccccc1,inconclusive: -40.4%
20,O=C(Nc1ccc(Cl)c(S(=O)(=O)N2CCOCC2)c1)c1ccc2c(c1)OCO2,inconclusive: -53%

row,Structure (SMILES),"activity change, negative = inhibition"
1,Cc1nc2ccc(C(=O)Nc3ccccc3Cl)cc2s1,inactive: 99.1%
2,CNC(=O)c1cc2cc(Cc3ccccc3Cl)ccc2oc1=O,inconclusive: -43.8%
3,COc1ccc(NS(=O)(=O)c2cc(NC(=O)c3ccc(=O)[nH]c3)ccc2N2CCCC2)cc1,active: -74.3%
4,COc1ccc(NC(=O)C(=O)c2cn(CC(=O)N3CCCC3)c3ccccc23)cc1OC,inconclusive: -42.2%
5,Nc1ncnc(NC2CCS(=O)(=O)C2)c1[N+](=O)[O-] (stereo not drawn),inactive: -24%
6,CCc1cc(C(=O)NCC(c2cccs2)N2CCOCC2)sc1C (stereo not drawn),inconclusive: -43.8%
7,Cc1nn(CCC(=O)NNC(=S)Nc2cccc(Cl)c2)c(C)c1[N+](=O)[O-],inconclusive: -40.4%
8,COc1cc2nc(CN3CCN(S(=O)(=O)c4cc(C)ccc4C)CC3)[nH]c(=O)c2cc1OC,inactive: 0%
9,O=C(c1ccco1)N(Cc1ccc2c(c1)OCO2)Cc1cc2cc3c(cc2[nH]c1=O)OCO3,inconclusive: -49.9%
10,Fc1ccccc1CCNc1c2c(nc3ncnn13)CCCC2,active: -77.4%
11,Cc1ccc(Nc2nc(N)nc(CCl)n2)cc1,active: -108%
12,Cc1c(Cl)cccc1N=Cc1ccc([N+](=O)[O-])s1,active: -108%
13,CC1CCCCN1Cc1nc2c(c(=O)n(C)c(=O)n2C)n1CCc1ccccc1 (stereo not drawn),active: -66.9%
14,CC1CCCCC1NC(=O)CSc1ccsc1[N+](=O)[O-] (stereo not drawn),inconclusive: -46.1%
15,Cc1ccsc1C(=O)Nc1ccc(OCc2ccccc2)cc1,inactive: 36.3%
16,COc1ccc(/C=N/Nc2nc(Nc3ccccc3)nc(N3CCCC3)n2)cc1[N+](=O)[O-],inconclusive: -56.8%
17,COc1ccc(CCN2CC(C(=O)OCC(=O)NCc3ccccc3Cl)CC2=O)cc1OC (stereo not drawn),inactive: 16.6%
18,O=C(Nc1ccnn1C1CCN(Cc2ccc(F)cc2)CC1)C1CC1,inconclusive: -41.8%
19,COCCNC(=S)N/N=C(\C)c1ccc(-n2ccnc2)cc1,inconclusive: -46.4%
20,O=C(O)CCSc1nnc(-c2ccc(Cl)cc2Cl)o1,active: -76.3%

row,Structure (SMILES),"activity change, negative = inhibition"
1,C/C(=C(/NC(=O)c1ccccc1)C(=O)O)c1ccco1,inconclusive: -42.4%
2,CC1(C)O[C@H]2[C@@H](O1)[C@@H](C(=O)Nc1cc(F)ccc1F)O[C@@H]1OC(C)(C)O[C@@H]12,active: -88.9%
3,Cc1nc(NC(=O)c2ccco2)sc1-c1csc(Nc2ccc(Cl)cc2)n1,inconclusive: -50.8%
4,O=C(NC1CCN(Cc2ccccc2)CC1)c1cccc(NS(=O)(=O)c2ccc(Br)cc2)c1,inconclusive: -53.6%
5,Cn1ncc2c(=O)[nH]nnc21,inactive: 29%
6,COC(=O)c1cc(=O)nc(NN=Cc2ccc(C)cc2)s1,inactive: 46.6%
7,C=CCNC(=S)NCc1cccnc1,inconclusive: -49.2%
8,FC(F)(F)c1cccc(NC(=S)NCc2ccccc2)c1,active: -72.6%
9,COC(=O)C1=CN(C(C)c2ccccc2)C=C(C(=O)OC)C1c1cc(OC)c(OC)c(OC)c1 (stereo not drawn),inconclusive: -48.5%
10,O=C(NCc1csc2ccccc12)Nc1cc(Cl)cc(Cl)c1,active: -62.4%
11,C/C(=N/NC(=O)c1ccc(Cl)s1)c1ccc(NC(=O)COc2ccc(Cl)cc2)cc1,active: -77%
12,CCOc1cc(/C=N/NC(=O)CSc2nncn2C)ccc1OCc1ccccc1,inconclusive: -55.5%
13,CCOc1ccccc1NC(=O)CCS(=O)(=O)c1ccc(OC)cc1,inconclusive: 0%
14,CC(C)OC1=CC(=O)OC(c2cccc(Cl)c2)C1 (stereo not drawn),inconclusive: -40.8%
15,CC(C)NC(=S)NC(=O)/C=C/c1ccc(F)cc1,active: -75.6%
16,CC1=NNC(=O)/C1=C\c1cn(-c2ccccc2)nc1-c1cccs1,active: -100%
17,CN(c1ccc(Cl)cc1)S(=O)(=O)c1nnc(NC(=O)c2ccco2)s1,inconclusive: -41.3%
18,CCOc1ccc(-n2c(SCC(=O)N3CCCc4ccccc43)nc3c([nH]c4ccccc43)c2=O)cc1,inactive: 9.52%

# Grouped by structure, the compounds so far containing an aryl thioether with sulfur outside any ring.
row,Structure (SMILES),"activity change, negative = inhibition"
1,CN(C)S(=O)(=O)c1ccc(Cl)c(NC(=O)CSc2nc3c(cc2C#N)C(=O)CC(C)(C)C3)c1,inconclusive: -40.2%
3,Cc1ccccc1NC(=O)CSc1nnc(Cc2cccn2C)n1-c1ccc(F)cc1,inconclusive: -43.2%
5,O=C(CSc1ccc(Br)cc1)N1CCOCC1,inconclusive: -50%
6,COc1ccc(-c2nnc(SCC(=O)NNC(=O)Cc3ccccc3)n2C)cc1OC,inconclusive: -43.1%
15,N#Cc1cc(-c2ccccc2)cnc1Sc1ccccc1,inactive: 33.2%
14,CC1CCCCC1NC(=O)CSc1ccsc1[N+](=O)[O-] (stereo not drawn),inconclusive: -46.1%
20,O=C(O)CCSc1nnc(-c2ccc(Cl)cc2Cl)o1,active: -76.3%
12,CCOc1cc(/C=N/NC(=O)CSc2nncn2C)ccc1OCc1ccccc1,inconclusive: -55.5%
18,CCOc1ccc(-n2c(SCC(=O)N3CCCc4ccccc43)nc3c([nH]c4ccccc43)c2=O)cc1,inactive: 9.52%
